Reference: PubChem BioAssay AID1159600 (NIAID, 2016)
In all, the deposit lists 756 reagents; shown is a random part of them. 134 of all reagents (18%) were called active. 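Active includes both reduced and increased reporter signal, though most active siRNAs reduce it; R848 dose unknown.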 Entries without a mark were called inactive. The numbers tell different reagents against one gene apart. Reagent sequences are not shown. The record does not give: the amount of reagent.

Aim: 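Which TLR pathway genes support TNF promoter activation by R848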 (primary screen)
Cell system: human THP-1 TNF reporter clone B5, made macrophage-like with PMA
Reagent: single siRNA against human genes
Time to read-out: 4 h ligand stimulation, assayed 48 to 72 h after siRNA transfection
Challenge: R848 (TLR7/8 agonist) for 4 hours before lysis; dose not given
Read-out: 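TNF promoter firefly to renilla luciferase ratio after 4 h R848, scaled per plate by median and MAD, robust z-score against negative controls, mean of replicates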
Direction: TNF reporter z-score: higher = stronger TNF promoter reporter signal after R848
Rule for the call: 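siRNAs graded by distance of mean z-score from zero in steps of 1, 1.5, 2 and 2.5; active calls sit at roughly -1.5 or below, or 1.5 or above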
Meaning of the calls: active = strong change in TNF reporter (up or down); inactive = little change

| gene knocked down | reagent | TNF reporter z-score |
| --- | --- | --- |
| AKT3 | 1 | 0.111 |
| AKT3 | 2 | -1.33 |
| AKT3 | 3 | -1.57 (active) |
| AKT3 | 4 | -0.0474 |
| AKT3 | 5 | 0.192 |
| AKT3 | 6 | -0.571 |
| MAPK13 | 1 | -2.05 (active) |
| MAPK13 | 2 | -1.88 (active) |
| MAPK13 | 3 | 0.378 |
| MAPK13 | 4 | -0.387 |
| MAPK13 | 5 | -0.672 |
| MAPK13 | 6 | 0.348 |
| TICAM2 | 1 | -0.0164 |
| TICAM2 | 2 | -0.734 |
| TICAM2 | 3 | 1.21 |
| TICAM2 | 4 | 1.26 |
| TICAM2 | 5 | -1.05 |
| TICAM2 | 6 | -0.79 |
| MAP2K3 | 1 | -0.533 |
| MAP2K3 | 2 | -0.276 |
| MAP2K3 | 3 | -0.51 |
| MAP2K3 | 4 | -1.7 (active) |
| MAP2K3 | 5 | 0.0946 |
| MAP2K3 | 6 | -3.35 (active) |
| TIRAP | 1 | -0.586 |
| TIRAP | 2 | 0.46 |
| TIRAP | 3 | -0.76 |
| TIRAP | 4 | -0.296 |
| TIRAP | 5 | 0.178 |
| TIRAP | 6 | -1.06 |

Next part, starting with the last 8 of the part before.
| gene knocked down | reagent | TNF reporter z-score |
| --- | --- | --- |
| MAP2K3 | 5 | 0.0946 |
| MAP2K3 | 6 | -3.35 (active) |
| TIRAP | 1 | -0.586 |
| TIRAP | 2 | 0.46 |
| TIRAP | 3 | -0.76 |
| TIRAP | 4 | -0.296 |
| TIRAP | 5 | 0.178 |
| TIRAP | 6 | -1.06 |
| IFNAR1 | 1 | -0.51 |
| IFNAR1 | 2 | -1.82 (active) |
| IFNAR1 | 3 | 0.601 |
| IFNAR1 | 4 | -1.33 |
| IFNAR1 | 5 | 0.288 |
| IFNAR1 | 6 | -0.568 |
| IFNB1 | 1 | -1.05 |
| IFNB1 | 2 | -1.66 (active) |
| IFNB1 | 3 | 0.286 |
| IFNB1 | 4 | -0.655 |
| IFNB1 | 5 | -1.17 |
| IFNB1 | 6 | -2.02 (active) |
| TAB1 | 1 | -0.173 |
| TAB1 | 2 | -2.21 (active) |
| TAB1 | 3 | 0.37 |
| TAB1 | 4 | -1.99 (active) |
| TAB1 | 5 | -1.52 (active) |
| TAB1 | 6 | -0.666 |
| PTK2B | 1 | -1.2 |
| PTK2B | 2 | -0.771 |
| PTK2B | 3 | 0.964 |
| PTK2B | 4 | -0.919 |
| PTK2B | 5 | -1.36 |
| PTK2B | 6 | 1.09 |
| ELK4 | 1 | -0.216 |
| ELK4 | 2 | -1.65 (active) |
| ELK4 | 3 | -0.856 |
| ELK4 | 4 | -0.103 |
| ELK4 | 5 | -0.927 |
| ELK4 | 6 | 0.154 |
| RIPK3 | 1 | -0.183 |
| RIPK3 | 2 | -0.199 |
| RIPK3 | 3 | 0.388 |
| RIPK3 | 4 | -0.622 |
| RIPK3 | 5 | -0.31 |
| RIPK3 | 6 | 0.115 |
| IL6 | 1 | 0.977 |
| IL6 | 2 | -1.09 |
| IL6 | 3 | -0.682 |
| IL6 | 4 | -0.636 |
| IL6 | 5 | -0.786 |
| IL6 | 6 | -0.0653 |
| AKT1 | 1 | 0.778 |
| AKT1 | 2 | -0.325 |
| AKT1 | 3 | -1.43 |
| AKT1 | 4 | -0.566 |
| AKT1 | 5 | 0.256 |
| AKT1 | 6 | -2.2 (active) |
